Taken from: PubChem BioAssay AID493246 (Drosophila RNAi Screening Center, 2011)
The deposit covers about 21,000 reagents; shown is a random part of those with a known target gene and a result. Of all reagents, 429 (2%) were called active. 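Values are raw and not normalised between plates; calls rest on per-plate z-scores that were not deposited.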 A number with no mark means an inactive call. A plus sign joins genes that one reagent is predicted to hit. The record does not give: the amount of reagent, the time to read-out.

Aim: 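Identify essential fly genes by loss of cell viability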 (primary screen)
System: Drosophila Kc and S2R+ cells
Reagents: long dsRNA against Drosophila genes
Measurement: 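Raw, unnormalised count of remaining cells in each well; per-plate z-scores of cell number underlie the calls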
Scale: Kc cell number and S2R+ cell number: higher = more cells remaining
Rule for the call: 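Counted as a hit if cell number falls by a z-score of at least 3 within its plate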

For RhoGAP71E (GeneID 39693) [DRSC10232], the entry reads Kc cell number, rep 1 = 1.86e6; Kc cell number, rep 2 = 1.87e6; S2R+ cell number, rep 1 = 1.13e6; S2R+ cell number, rep 2 = 1.23e6.
For RhoGAP71E (GeneID 39693) [DRSC10837], the entry reads Kc cell number, rep 1 = 1.67e6; Kc cell number, rep 2 = 1.80e6; S2R+ cell number, rep 1 = 9.93e5; S2R+ cell number, rep 2 = 1.11e6.
Knock-down of RhoGAP71E (GeneID 39693) [DRSC10838] came out at: Kc cell number, rep 1 = 1.53e6; Kc cell number, rep 2 = 1.73e6; S2R+ cell number, rep 1 = 1.35e6; S2R+ cell number, rep 2 = 1.69e6.
CG42818 + Ca-Ma2d [DRSC01963] gave Kc cell number, rep 1 = 1.65e6; Kc cell number, rep 2 = 1.78e6; S2R+ cell number, rep 1 = 1.28e6; S2R+ cell number, rep 2 = 1.47e6.
With knock-down of CG5013 (GeneID 41951) [DRSC15695], the record shows Kc cell number, rep 1 = 1.29e6; Kc cell number, rep 2 = 1.33e6; S2R+ cell number, rep 1 = 1.14e6; S2R+ cell number, rep 2 = 1.26e6.
Silencing of Cpr92F (GeneID 42450) [DRSC15819] resulted in: Kc cell number, rep 1 = 1.35e6; Kc cell number, rep 2 = 1.38e6; S2R+ cell number, rep 1 = 1.22e6; S2R+ cell number, rep 2 = 1.34e6.
Depletion of wit (GeneID 44096) [DRSC08741] came out at: Kc cell number, rep 1 = 1.31e6; Kc cell number, rep 2 = 1.38e6; S2R+ cell number, rep 1 = 1.25e6; S2R+ cell number, rep 2 = 1.14e6.

Records listed so far whose gene name begins with R or r:
RhoGAP71E (GeneID 39693) [DRSC10232]: Kc cell number, rep 1 = 1.86e6; Kc cell number, rep 2 = 1.87e6; S2R+ cell number, rep 1 = 1.13e6; S2R+ cell number, rep 2 = 1.23e6
RhoGAP71E (GeneID 39693) [DRSC10837]: Kc cell number, rep 1 = 1.67e6; Kc cell number, rep 2 = 1.80e6; S2R+ cell number, rep 1 = 9.93e5; S2R+ cell number, rep 2 = 1.11e6
RhoGAP71E (GeneID 39693) [DRSC10838]: Kc cell number, rep 1 = 1.53e6; Kc cell number, rep 2 = 1.73e6; S2R+ cell number, rep 1 = 1.35e6; S2R+ cell number, rep 2 = 1.69e6

The listing continues.
Chchd2 (GeneID 32701) [DRSC19931] showed Kc cell number, rep 1 = 1.64e6; Kc cell number, rep 2 = 1.63e6; S2R+ cell number, rep 1 = 1.12e6; S2R+ cell number, rep 2 = 1.29e6.
Depletion of CG1575 (GeneID 31731) [DRSC18069] resulted in: Kc cell number, rep 1 = 4.89e5; S2R+ cell number, rep 1 = 8.81e5.
With knock-down of CG13008 (GeneID 32654) [DRSC19527], the screen gave Kc cell number, rep 1 = 1.39e6; Kc cell number, rep 2 = 1.41e6; S2R+ cell number, rep 1 = 1.06e6; S2R+ cell number, rep 2 = 1.14e6.
Silencing of CG13008 (GeneID 32654) [DRSC19528] resulted in: Kc cell number, rep 1 = 1.47e6; Kc cell number, rep 2 = 1.47e6; S2R+ cell number, rep 1 = 1.02e6; S2R+ cell number, rep 2 = 1.15e6.
Depletion of CG10984 (GeneID 39446) [DRSC09817] gave: Kc cell number, rep 1 = 1.46e6; Kc cell number, rep 2 = 1.53e6; S2R+ cell number, rep 1 = 1.35e6; S2R+ cell number, rep 2 = 1.31e6.
